“Also recorded” adds a separate entry of the source. At least one structure is not confirmed: it was looked up by name or label, or the drawing left a doubt.
Test system: healthy subjects
Experiment: Toronto Empathy Questionnaire (TEQ)
Assay type: in vivo, human
Settings: 10 mg and 25 mg, Day 7 and Day 84
Source text: In some embodiments, the Toronto Empathy Questionnaire (TEQ) is utilized to evaluate the safety and/or efficacy of psilocybin. The TEQ represents empathy as a primarily emotional process. […] The TEQ is a brief, reliable and valid instrument for the assessment of empathy. […]
The following list of outcome measures are non-exhaustive. • a. The short-term change from Baseline (Day −1 [Visit 2]) to Day 7 (Visit 5) in cognitive measures of attention, spatial and working memory and executive function was measured by a composite score of the CANTAB Panel (Spatial Working Memory [SWM], Rapid Visual Information Processing [RVP], Paired Associates Learning [PAL]). • b. The short-term change from Baseline (Day −1 [Visit 2]) to Day 7 (Visit 5) in Social Cognition Panel scales (Pictorial Empathy Test [PET], Reading the Mind in the Eyes Test [RMET], Toronto Empathy Questionnaire [TEQ], Social Value Orientation [SVO], Scale of Social Responsibility [SSR]). • c. The change from Baseline (Day −1 [Visit 2]) to Day 28 (Visit 6) in cognitive measures of attention, spatial and working memory and executive function as measured by a composite score of the CANTAB Panel (SWM, RVP, PAL). • d. […] Dose-related differences between cognitive effects of psilocybin at Baseline (Day −1 [Visit 2]), Day 7 (Visit 5) and Day 28 (Visit 6), as measured by a composite score of the CANTAB Panel (SWM, RVP, PAL). • f. […]

CN(C)CCc1c[nH]c2cccc(OP(=O)(O)O)c12 [psilocybin]
TEQ, change from baseline compared to placebo: No differences among treatment groups; also recorded: no difference; also recorded: no consistent or noteworthy trends
